According to patent US6855711B1, “Pharmaceutical compositions comprising iron chelators for the treatment of neurodegenerative disorders and some novel iron chelators” (Yeda Research and Development Co. Ltd., priority 1999, dated 2005):
Some entries share one result that the patent states for a list of compounds.

tested on: iron-induced lipid peroxidation (MDA formation) in rat brain cortex homogenates; assay: Prevention of iron-induced lipid peroxidation (MDA formation, TBA method) in rat brain cortex homogenates; type: biochemical; conditions: 10^−3M chelator, 10^−4M FeCl3, rat cerebral cortex homogenates
Experimental: The ability of the compounds of the invention to prevent lipid peroxidation in brain tissue was first screened in rat brain homogenates in vitro by a method involving the detection of free radicals performed by […] and measurement of the MDA formation, as described by D. Ben-Shachar et al. (1991) J. Neurochem. 57: 1609-14. In this method, brain cortex homogenates are prepared in sucrose and incubated alone to determine basal lipid peroxidation, or incubated after the addition of Fe2(SO4)3 or FeCl3 for Fe-induction of maximum free-radical formation, and in the presence of the iron chelators to be tested. After addition of TBA, lipid peroxidation is assayed by measurement of MDA formation.
Brain cortex homogenates (10% wt/vol) from male Wistar rats were prepared in 0.3M sucrose and incubated in air as described (Rehncrona et al., (1980) J. Neurochem. 34: 1630-38). Aliquots (0.1 ml) of homogenate were incubated alone at 30° C. for 90 min to determine basal lipid peroxidation, or incubated after the addition of 10^−4 Fe2(SO4), or FeCl3 and in the presence of 10^−3M iron chelator of formula I or II. For the assay, to 0.3 ml of the homogenate there were added 0.2 ml of 8% SDS, 1.5 ml of 20% acetic acid pH 3.0-3.5, 1.5 ml of 0.8% thiobarbituric acid (TBA) and 0.5 ml of H2O2×2, the mixture was incubated at 95° C. for 60 min, cooled and lipid peroxidation was assayed by measurement of malondialdehyde formation at 532 nm, as described (Dexter et al. (1989) J. Neurobiochem. 52: 381-89). Standard curve: 1,1,3,3-tetraethoxypropane 0.1-25 nmol in 0.3 ml.
In another experiment, the Compounds 3, 7, 9-17 and 26 were examined for their ability to inhibit lipid peroxidation in vitro by measuring their capability to inhibit MDA formation in the presence of 10^−4M FeCl3 in rat brain homogenates. Ferric chloride(10^−4M)-induced lipid peroxidation, as measured by MDA formation in rat cerebral cortex homogenates, was inhibited to a different degree by 10^−3M of the various chelators.

Question: `O=Cc1ccc(O)c2ncccc12` [Compound 7, 5-formyl-8-hydroxyquinoline] was tested. Which “inhibition of MDA formation (lipid peroxidation), in words” value (“inhibition of MDA formation” below) did it give?
Answer: The value was “inhibited MDA formation”.

Question: How did the “inhibition of MDA formation” value turn out when `CC(C)(Cc1ccc(O)c2ncccc12)[N+](=O)[O-]` [Compound 9, 5-(2-methyl-2-nitropropyl)-8-hydroxyquinoline] was run?
Answer: The value was “inhibited MDA formation”.

Question: `COCc1ccc(O)c2ncccc12` [Compound 10, 5-methoxymethyl-8-hydroxyquinoline] was tested. Which “inhibition of MDA formation” value did it give?
Answer: The value was “inhibited MDA formation”.

Question: With `CCN(CC)Cc1ccc(O)c2ncccc12` [Compound 11, 5-diethylaminomethyl-8-hydroxyquinoline] as the compound, how does the “inhibition of MDA formation” value read?
Answer: The value was “inhibited MDA formation”.

Question: How did the “inhibition of MDA formation” value turn out when `Oc1ccc(CN2CCCCC2)c2cccnc12` [Compound 12, 5-piperidinomethyl-8-hydroxyquinoline] was run?
Answer: The value was “inhibited MDA formation”.

Question: Which “inhibition of MDA formation” value does the source give for `Oc1ccc(CN2CCOCC2)c2cccnc12` [Compound 13, 5-morpholinomethyl-8-hydroxyquinoline] here?
Answer: Its value is “inhibited MDA formation”.

Question: With `CN1CCN(CC2(O)CC=Cc3ncccc32)CC1` (centres unmarked) [Compound 14, 5-(4-methylpiperazinomethyl)-5-hydroxyquinoline] as the compound, how does the “inhibition of MDA formation” value read?
Answer: Its value is “inhibited MDA formation”.

Question: For `OCCN1CCN(Cc2ccc(O)c3ncccc23)CC1` [Compound 15, 5-(4-(2-hydroxyethyl)piperazin-1-ylmethyl)-8-hydroxyquinoline], which “inhibition of MDA formation” value is on record?
Answer: Its value is “inhibited MDA formation”.

Question: With `CCOC(=O)N1CCN(Cc2ccc(O)c3ncccc23)CC1` [Compound 16, 5-(4-ethoxycarbonylpiperazinomethy)-8-hydroxyquinoline] as the compound, how does the “inhibition of MDA formation” value read?
Answer: Its value is “inhibited MDA formation”.

Question: Which “inhibition of MDA formation” value does the source give for `Oc1ccc(Cn2ccnc2)c2cccnc12` [Compound 17, 5-(imidazol-1-ylmethyl)-8-hydroxyquinoline] here?
Answer: The value was “inhibited MDA formation”.

Question: `Oc1ccc(CN2CCSCC2)c2cccnc12` [Compound 26, 5-thiomorpholinomethyl-8-hydroxyquinoline] was tested. Which “inhibition of MDA formation” value did it give?
Answer: The value was “inhibited MDA formation”.
